Data from US20180355030A1.
These are yes or no findings as the source states them, for the method shown. Some entries that bind do so weakly or less than the wild type.

Protein sequences, listed by entry. Tags and fused reporters are not part of them. Residues count along the entry.
UniProt P24055, residues 33-292: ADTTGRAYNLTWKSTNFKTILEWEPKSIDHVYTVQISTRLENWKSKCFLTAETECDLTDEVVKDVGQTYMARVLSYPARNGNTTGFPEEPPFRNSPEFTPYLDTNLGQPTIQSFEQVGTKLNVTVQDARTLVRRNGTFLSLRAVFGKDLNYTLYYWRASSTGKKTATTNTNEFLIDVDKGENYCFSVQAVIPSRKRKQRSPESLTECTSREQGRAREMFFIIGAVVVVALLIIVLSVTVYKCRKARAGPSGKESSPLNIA
UniProt P08709, residues 61-466: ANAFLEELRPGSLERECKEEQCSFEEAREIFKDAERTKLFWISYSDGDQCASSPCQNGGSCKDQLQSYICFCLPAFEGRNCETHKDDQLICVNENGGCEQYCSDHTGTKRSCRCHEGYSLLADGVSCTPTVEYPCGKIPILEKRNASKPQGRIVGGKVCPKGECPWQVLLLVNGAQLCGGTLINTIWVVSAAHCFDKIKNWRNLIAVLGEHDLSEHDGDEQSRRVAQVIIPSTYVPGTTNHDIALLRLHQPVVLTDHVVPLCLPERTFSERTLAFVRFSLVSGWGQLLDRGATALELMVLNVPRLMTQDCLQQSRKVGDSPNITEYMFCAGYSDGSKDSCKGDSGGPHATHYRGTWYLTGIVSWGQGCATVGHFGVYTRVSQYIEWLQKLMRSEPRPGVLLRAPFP

Target: Lipidated rabbit tissue factor (rTF; American Diagnostica, Product #4520L) (rabbit) (UniProt P24055)
Assay: SPR, Biacore

binding: binds
Substance: Human FVIIa; Lot # A09050525 (Fitzgerald) (from UniProt P08709 61-466) (enzyme)
